For 1 molecule, binding results are on record in publication PMC5080440.

These are yes or no findings as the source states them, for the method shown. Tags and fused reporters may be left off the sequences shown.

In this experiment the target is T1, wild-type TagRFP-T-CENP-C (Drosophila melanogaster) (UniProt Q9VHP9).
T1 sequence: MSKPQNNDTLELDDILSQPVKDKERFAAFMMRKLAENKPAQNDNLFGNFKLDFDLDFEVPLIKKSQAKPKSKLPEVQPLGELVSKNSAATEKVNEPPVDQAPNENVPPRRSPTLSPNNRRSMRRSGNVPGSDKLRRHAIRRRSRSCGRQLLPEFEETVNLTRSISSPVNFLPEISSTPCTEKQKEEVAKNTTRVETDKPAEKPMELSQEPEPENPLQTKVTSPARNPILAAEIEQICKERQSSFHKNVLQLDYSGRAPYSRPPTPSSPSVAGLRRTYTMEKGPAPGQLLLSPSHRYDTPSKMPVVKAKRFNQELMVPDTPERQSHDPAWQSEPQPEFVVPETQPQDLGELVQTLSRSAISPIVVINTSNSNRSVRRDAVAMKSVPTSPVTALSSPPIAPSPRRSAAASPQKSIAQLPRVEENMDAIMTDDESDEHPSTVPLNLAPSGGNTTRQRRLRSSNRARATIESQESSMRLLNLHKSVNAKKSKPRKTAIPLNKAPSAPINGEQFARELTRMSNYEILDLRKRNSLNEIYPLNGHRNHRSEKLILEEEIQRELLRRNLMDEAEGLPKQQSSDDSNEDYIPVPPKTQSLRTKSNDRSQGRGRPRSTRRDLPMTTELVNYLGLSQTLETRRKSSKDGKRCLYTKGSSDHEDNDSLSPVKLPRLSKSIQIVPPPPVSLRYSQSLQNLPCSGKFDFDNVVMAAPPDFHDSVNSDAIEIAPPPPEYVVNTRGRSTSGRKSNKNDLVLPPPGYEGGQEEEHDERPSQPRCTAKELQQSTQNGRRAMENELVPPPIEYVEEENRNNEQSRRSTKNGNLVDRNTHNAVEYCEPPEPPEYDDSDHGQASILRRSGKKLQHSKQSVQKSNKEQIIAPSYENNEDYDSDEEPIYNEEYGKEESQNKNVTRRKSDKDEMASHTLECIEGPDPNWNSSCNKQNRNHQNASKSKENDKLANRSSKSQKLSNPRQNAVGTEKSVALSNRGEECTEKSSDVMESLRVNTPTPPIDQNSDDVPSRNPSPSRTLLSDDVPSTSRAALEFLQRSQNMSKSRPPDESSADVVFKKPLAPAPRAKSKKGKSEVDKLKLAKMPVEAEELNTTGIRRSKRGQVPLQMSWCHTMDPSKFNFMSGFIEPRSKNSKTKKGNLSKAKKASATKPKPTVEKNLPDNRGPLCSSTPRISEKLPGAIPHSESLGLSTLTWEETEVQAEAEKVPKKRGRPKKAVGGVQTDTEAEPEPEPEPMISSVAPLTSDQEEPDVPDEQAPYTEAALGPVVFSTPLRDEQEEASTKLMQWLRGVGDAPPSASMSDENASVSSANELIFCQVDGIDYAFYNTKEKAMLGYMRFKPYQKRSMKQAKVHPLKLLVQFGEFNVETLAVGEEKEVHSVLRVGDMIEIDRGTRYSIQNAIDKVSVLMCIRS
Description: fluorescence imaging of recruitment to kinetochores in cells; VH-EGFP in S2 cells expressing TagRFP-T-CENP-C-TR or wild-type TagRFP-T-CENP-C; localisation to kinetochores scored.

B1: vinculin head domain (aa 1-258) fused to EGFP (domain or fragment, UniProt P12003 1-258)
chain: MPVFHTRTIESILEPVAQQISHLVIMHEEGEVDGKAIPDLTAPVSAVQAAVSNLVRVGKETVQTTEDQILKRDMPPAFIKVENACTKLVRAAQMLQADPYSVPARDYLIDGSRGILSGTSDLLLTFDEAEVRKIIRVCKGILEYLTVAEVVETMEDLVTYTKNLGPGMTKMAKMIDERQQELTHQEHRVMLVNSMNTVKELLPVLISAMKIFVTTKNTKSQGIEEALKNRNFTVEKMSAEINEIIRVLQLTSWDEDAW
As to B1, the binding entry is recorded as “no binding”.
